In PubChem BioAssay AID588590 (National Center for Advancing Translational Sciences (NCATS), 2011):
In all, about 390,000 compounds went through this assay and about 4,000 (1%) were called active. Inconclusive results, whose numbers are uncertain, are shown with a selection of clear calls. Calls come from the whole dose curve; as a rule, active = well fitted inhibition curve with a large enough effect; inconclusive = small, poorly fitted or top-dose-only effect, or another doubt; inactive = no such curve, though single readings can be large or run the other way. A potency beside an inconclusive call is a rough fit, not a confirmed value.

By UniProt entry, the sequences of proteins in these tests, tags left out. Where a name states a change or a piece, a line headed by the entry shows the natural chain unless it says otherwise.
UniProt Q9UNA4: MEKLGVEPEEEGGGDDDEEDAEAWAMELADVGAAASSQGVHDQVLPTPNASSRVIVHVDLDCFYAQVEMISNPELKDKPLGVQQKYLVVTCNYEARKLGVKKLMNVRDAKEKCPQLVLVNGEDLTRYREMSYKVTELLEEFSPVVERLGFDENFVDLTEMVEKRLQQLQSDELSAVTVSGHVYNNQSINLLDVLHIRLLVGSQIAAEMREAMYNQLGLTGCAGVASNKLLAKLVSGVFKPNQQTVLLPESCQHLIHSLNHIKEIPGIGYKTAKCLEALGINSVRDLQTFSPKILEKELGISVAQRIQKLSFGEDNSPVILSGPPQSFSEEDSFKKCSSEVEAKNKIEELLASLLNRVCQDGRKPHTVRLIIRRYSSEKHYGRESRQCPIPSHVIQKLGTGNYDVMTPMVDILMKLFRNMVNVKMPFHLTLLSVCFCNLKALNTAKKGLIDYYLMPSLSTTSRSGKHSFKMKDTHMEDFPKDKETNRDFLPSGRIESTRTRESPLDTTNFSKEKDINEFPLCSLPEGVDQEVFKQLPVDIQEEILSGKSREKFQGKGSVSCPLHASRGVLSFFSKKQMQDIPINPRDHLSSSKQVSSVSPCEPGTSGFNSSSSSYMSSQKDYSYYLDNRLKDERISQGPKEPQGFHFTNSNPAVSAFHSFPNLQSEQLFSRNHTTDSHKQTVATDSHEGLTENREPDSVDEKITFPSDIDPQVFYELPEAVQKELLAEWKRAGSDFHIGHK

The compounds below were run against DNA polymerase iota (Homo sapiens) (UniProt Q9UNA4) (assay: qHTS for Inhibitors of Polymerase Iota). Conditions: Pol iota fluorescent replication assay, 10 min; series mostly up to 115 µM; activity, negative = inhibition: at the top concentration.
Procedure, shortened: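 Fluorescent replication assay read twice, at 0 min and 10 min after adding 50 nM (final) substrate. Enzyme (10 nM) and compounds were first incubated 15 min at room temperature; enzyme-free buffer wells were negative controls.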
Potency is the fitted concentration of half-maximal effect.

Structure (SMILES)	Potency	activity, negative = inhibition
Cc1nn(C)cc1C(=O)/C=C/c1ccc([N+](=O)[O-])cc1	inconclusive: 56.2 µM [inhibitor, partial curve, poor fit]	
N#Cc1ccccc1CSc1nc2ccc(NC(=O)c3ccccc3C(=O)O)cc2s1		inactive: 9.66%
CC(C)C(=O)N1CCC2(CC1)Oc1ccc(Cl)cc1C(=O)C21CC(c2cccnc2)=NO1 (stereo not drawn)	inconclusive: 44.7 µM [inhibitor, partial curve, poor fit]	
CC/C=C/C(=O)N1CC2(CC(c3cccc(NC(=O)COc4ccc(Cl)cc4)c3)=NO2)C[C@H]1C(N)=O (stereo partly drawn)	inconclusive: 20 µM [inhibitor, single point]	
Cn1nc(C(=O)Nc2ccc(F)c(Cl)c2)c2c1-c1ccccc1S(=O)(=O)C2		inactive: -14.2%
Cc1ccc(Cl)cc1NS(=O)(=O)N1CCOCC1	inconclusive: 100 µM [inhibitor, single point]	
Cc1cccc(-c2nnc(C3CCN(S(=O)(=O)c4cccc(Cl)c4)CC3)o2)c1		inactive: -14.6%
CCOC(=O)c1c(C)c(-c2ccccc2)n(CC(=O)NC2CCCCC2)c1C		inactive: 2.5%
COc1ccc(Br)cc1CN1C(=O)c2ccccc2C1C(=O)NC1CCCCCC1 (stereo not drawn)		inactive: 6.35%
NCc1cccc(CNc2ccc([N+](=O)[O-])cc2C(N)=O)c1	inconclusive: 11.2 µM [inhibitor, partial curve, poor fit]	
Cc1nc2cccnc2n1-c1cccc(C(=O)N2CCN(c3ccc(Cl)cc3)CC2)c1		inactive: 13.5%
CCCc1c(C(=O)NNc2ccccc2OC)cnn1-c1ccccc1	inconclusive: 31.6 µM [inhibitor, partial curve]	
CCOc1ccc(S(=O)(=O)N2CCCCC2)cc1NC(=O)C1=COCCO1	inconclusive: 79.4 µM [inhibitor, single point]	
Cc1cccc(NS(=O)(=O)c2ccc(C(=O)NCC(c3ccco3)N(C)C)cc2)c1C (stereo not drawn)	inconclusive: 50.1 µM [inhibitor, partial curve, poor fit]	
CN(C)/C=C/C(=O)/C=C/c1ccc(Cl)cc1Cl	inconclusive: 22.4 µM [inhibitor, partial curve, poor fit]	
Cc1cc(C)n2nc(SCC(=O)NC(=O)c3ccccc3Cl)nc2n1	inconclusive: 89.1 µM [inhibitor, partial curve, poor fit]	
COc1ccccc1N1CCN(CCN2C(=O)CC(=C3c4ccccc4-c4ccccc43)C2=O)CC1	inconclusive: 12.6 µM [inhibitor, full curve, poor fit]	
COc1ccc(OC)c(NC(=O)C2CCCN(S(=O)(=O)c3cccc4nsnc34)C2)c1 (stereo not drawn)	inconclusive: 11.2 µM [inhibitor, partial curve, poor fit]	
CCCCNC(=O)c1ccc(N2CCOCC2)c(NS(=O)(=O)c2ccc(OC)cc2)c1	inconclusive: 20 µM [inhibitor, single point]	
O=c1[nH]c(/C=C/c2ccccc2)c([N+](=O)[O-])c(=O)[nH]1	inconclusive: 28.2 µM [inhibitor, partial curve, poor fit]	
COc1ccc(S(=O)(=O)N2CCc3ccccc32)cc1C(=O)NCc1ccco1	inconclusive: 63.1 µM [inhibitor, partial curve, poor fit]	

In the list so far, these contain sulfur:
Structure (SMILES)	Potency	activity, negative = inhibition
N#Cc1ccccc1CSc1nc2ccc(NC(=O)c3ccccc3C(=O)O)cc2s1		inactive: 9.66%
Cn1nc(C(=O)Nc2ccc(F)c(Cl)c2)c2c1-c1ccccc1S(=O)(=O)C2		inactive: -14.2%
Cc1ccc(Cl)cc1NS(=O)(=O)N1CCOCC1	inconclusive: 100 µM [inhibitor, single point]	
Cc1cccc(-c2nnc(C3CCN(S(=O)(=O)c4cccc(Cl)c4)CC3)o2)c1		inactive: -14.6%
CCOc1ccc(S(=O)(=O)N2CCCCC2)cc1NC(=O)C1=COCCO1	inconclusive: 79.4 µM [inhibitor, single point]	
Cc1cccc(NS(=O)(=O)c2ccc(C(=O)NCC(c3ccco3)N(C)C)cc2)c1C (stereo not drawn)	inconclusive: 50.1 µM [inhibitor, partial curve, poor fit]	
Cc1cc(C)n2nc(SCC(=O)NC(=O)c3ccccc3Cl)nc2n1	inconclusive: 89.1 µM [inhibitor, partial curve, poor fit]	
COc1ccc(OC)c(NC(=O)C2CCCN(S(=O)(=O)c3cccc4nsnc34)C2)c1 (stereo not drawn)	inconclusive: 11.2 µM [inhibitor, partial curve, poor fit]	
CCCCNC(=O)c1ccc(N2CCOCC2)c(NS(=O)(=O)c2ccc(OC)cc2)c1	inconclusive: 20 µM [inhibitor, single point]	
COc1ccc(S(=O)(=O)N2CCc3ccccc32)cc1C(=O)NCc1ccco1	inconclusive: 63.1 µM [inhibitor, partial curve, poor fit]	

Going on with the list.

Structure (SMILES)	Potency	activity, negative = inhibition
COc1ccc(C2COc3cc(O)ccc3C2)c(OC)c1O (stereo not drawn)	active: 79.4 µM	
O=C(NCCc1ccc2c(c1)OCCO2)c1cc2ccccc2o1	inconclusive: 17.8 µM [inhibitor, partial curve, poor fit]	
Cc1cc(C2=NNC(=NC3CCCCC3)SC2)c(C)n1-c1c(C)n(C)n(-c2ccccc2)c1=O	inconclusive: 17.8 µM [inhibitor, partial curve, poor fit]	
C/C(CC(=O)Nc1cc(C)ccn1)=N\NC(=O)c1cccc(F)c1	inconclusive: 56.2 µM [inhibitor, partial curve, poor fit]	
Cc1ccc(OCCCC(=O)Nc2ccccc2C(F)(F)F)cc1	inconclusive: 39.8 µM [inhibitor, single point]	
Cc1cc2ccccn2c1C(=O)c1cccc([N+](=O)[O-])c1	inconclusive: 89.1 µM [inhibitor, single point]	
Cc1oc2c(c(C)cc3oc(=O)c(CC(=O)NCCc4ccccc4)c(C)c32)c1C		inactive: -5.68%
COC(=O)CSc1cc(C)nc2ccc(OC)cc12		inactive: 7.34%
O=C(Nc1ccc(Cl)c(S(=O)(=O)N2CCCCC2)c1)c1ccco1	inconclusive: 70.8 µM [inhibitor, partial curve]	
CCOC(=O)c1cccc(NC(=O)/C=C/c2cccc([N+](=O)[O-])c2)c1	inconclusive: 100 µM [inhibitor, partial curve, poor fit]	
COc1cc(C2Oc3ccccc3C=C2[N+](=O)[O-])cc(OC)c1OC (stereo not drawn)	inconclusive: 15.8 µM [inhibitor, partial curve, poor fit]	
Cc1ccc(-c2c(CN3CCN(c4cccc(C(F)(F)F)c4)CC3)csc2C)cc1		inactive: 6.46%
Cc1sc2ncnc(N(C)Cc3ccco3)c2c1C	inconclusive: 0.891 µM [inhibitor, full curve, poor fit]	
Cc1ccsc1C(=O)C1CCCN(Cc2cccn2-c2ccc(Cl)cn2)C1 (stereo not drawn)	inconclusive: 44.7 µM [inhibitor, partial curve, poor fit]	
O=C(CCC(=O)N(CC(=O)NC1CCCCC1)Cc1cccs1)Nc1nccs1	inconclusive: 89.1 µM [inhibitor, partial curve, poor fit]	
CCOc1ccc(-c2nnc(Nc3ccc(S(N)(=O)=O)cc3)c3ccccc23)cc1	inconclusive: 89.1 µM [inhibitor, single point]	
C1=CN2CC=Cc3cc(/C=C/c4ccnc5ccccc45)cc(c32)C1	active: 79.4 µM	
c1ccc(NCc2ccccn2)cc1	inconclusive: 35.5 µM [inhibitor, partial curve, poor fit]	
CC1CCC2(CC1)NC(=O)N(CC(=O)Nc1sc3c(c1C(N)=O)CCC3)C2=O (stereo not drawn)	active: 11.2 µM	
CCCn1c(SCC(=O)Nc2nnc(-c3ccccc3)s2)nnc1-c1ccccn1	inconclusive: 25.1 µM [inhibitor, full curve, poor fit]	
CC(C)n1cnnc1SCC(=O)Nc1ccc(Br)cc1F	inconclusive: 11.2 µM [inhibitor, partial curve, poor fit]	

Structure (SMILES)	Potency	activity, negative = inhibition
O=S(=O)(Nc1nc2ccccc2nc1Nc1ccc2c(c1)OCCO2)c1cccs1	inconclusive: 0.708 µM [inhibitor, full curve, poor fit]	
CC1(C)CC(N2CCN(Cc3ccccc3)CC2)=CC(=[N+]2CCCCC2)C1	inconclusive: 39.8 µM [inhibitor, single point]	
Cc1nc2c(C(=O)NCCC3=CCCCC3)c[nH]n2c(=O)c1Cl	inconclusive: 28.2 µM [inhibitor, single point]	
O=C(N/N=C/c1cccc([N+](=O)[O-])c1O)c1cccs1		inactive: -3.19%
Cc1cc(-c2csc(NC(=O)c3ccc(=O)[nH]c3)n2)c(C)n1Cc1ccco1	inconclusive: 56.2 µM [inhibitor, partial curve, poor fit]	
O=C(NCCO)c1cc2c(s1)CCC2	inconclusive: 3.16 µM [inhibitor, single point]	
Cc1ccc(CNC(=O)c2ccc(Cn3nc(C)c(Cl)c3C)o2)cc1	inconclusive: 4.47 µM [inhibitor, full curve, poor fit]	
CCOc1ccc(CCNC(=O)C2CC(C)=CCC2C(=O)O)cc1OCC (stereo not drawn)	inconclusive: 17.8 µM [inhibitor, single point]	
CCC(=C(c1ccc(OC)cc1)c1ccc(OC)cc1)c1cn(CC(O)CN(CCO)CCO)c2ccccc12 (stereo not drawn)	inconclusive: 12.6 µM [inhibitor, full curve]	
COc1ccc(-n2c(=O)c3c4c(sc3n(Cc3ccc(F)cc3)c2=O)CCCC4)c(OC)c1		inactive: 19.6%
N#CCC(=O)c1sccc1-n1cccc1	inconclusive: 7.94 µM [inhibitor, single point]	
Cn1c(=O)[nH]c(=O)c2c1nc([N+](=O)[O-])n2Cc1ccccc1	inconclusive: 25.1 µM [inhibitor, partial curve, poor fit]	
CCCCOc1ccc(C(=O)Nc2cccc(-c3nc4cccnc4s3)c2)cc1		inactive: -7.1%
CSc1cccc(NC(=O)CN2C(=O)COc3ccc(Cl)cc32)c1	inconclusive: 89.1 µM [inhibitor, single point]	
CCOc1ccc(C(=O)N2CCC(c3nc4ccccc4o3)CC2)cc1		inactive: 41.3%
CC(C)C[C@@H](CNCC(=O)[C@H](Cc1ccccc1)NC(=O)c1[nH]cnc1C(=O)N[C@@H](C)CN)NC(=O)c1nc[nH]c1C(=O)N[C@@H](C)C(=O)O	inconclusive: 12.6 µM [inhibitor, partial curve, poor fit]	
COc1ccc(S(=O)(=O)N2CCN(c3ccccc3)CC2)cc1OC	inconclusive: 79.4 µM [inhibitor, partial curve]	
O=C(N[C@H]1CCC(=O)N(CCSc2ccc(Br)cc2)CC1)OCc1ccccc1	inconclusive: 89.1 µM [inhibitor, single point]	
CCOc1ccc(NC(=O)CSc2nnc(C3CC3)n2C2CC2)cc1		inactive: 21.3%
COc1ccc(-c2nc3ccc(N4CCCC4)cc3c(=O)[nH]2)cc1OC	inconclusive: 5.62 µM [inhibitor, partial curve, poor fit]	
CNS(=O)(=O)c1cccc(C(=O)OCC(=O)c2ccc3[nH]c(=O)[nH]c3c2)c1	inconclusive: 25.1 µM [inhibitor, partial curve]	

Two consecutive records already listed, for reference:
Structure (SMILES)	Potency	activity, negative = inhibition
CCCCOc1ccc(C(=O)Nc2cccc(-c3nc4cccnc4s3)c2)cc1		inactive: -7.1%
CSc1cccc(NC(=O)CN2C(=O)COc3ccc(Cl)cc32)c1	inconclusive: 89.1 µM [inhibitor, single point]	
